Values from PubChem BioAssay AID504791 (Drosophila RNAi Screening Center, 2011).

Aim: 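Genes whose knock-down strengthens or weakens small-RNA reporter silencing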 (primary screen)
Cells: Drosophila S2-derived reporter cells
Reagent: long dsRNA against Drosophila genes, about 150-250 ng dsRNA per well (siRNA assay); about 80-120 ng (miRNA assay)
Time to read-out: about 5 days (siRNA assay); about 4 days (miRNA assay)
Conditions: copper sulfate induction of reporters: 25 µM (siRNA assay); 200 mM stated (miRNA assay), 1-2 days before reading
Read-out: 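Per-well ratio of Renilla over firefly light, expressed relative to that plate's average ratio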
Call rule: 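First-pass picks had plate-scaled ratios over 1.5 for the siRNA assay, over 1.6 for the miRNA assay, or under 0.6; two distinct dsRNAs had to score alike on retest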
The screen tested about 23,000 reagents; shown is an unselected part of those that have a named target and a result. Over the whole deposit, 199 (0.86%) were called active. 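Plate-scaled ratios behind the calls are not deposited; printed light signals are raw; many rows marked increased or decreased are still called inactive.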 A number with no mark means an inactive call. The numbers tell different reagents against one gene apart. Names joined by + are all predicted targets of the reagent. The record does not give: the direction of the score.

target	reagent no.	stable siRNA reporter change	miRNA reporter change	stable assay Renilla, run 1 (luminescence)	stable assay firefly, run 1 (luminescence)
CG14017	1			7507	5.42e5
CG1896	1			7579	4.94e5
CG34429	1			5352	4.12e5
Cad86C	1			6030	3.39e5
Cad86C	2			6447	3.60e5
Pif1A + Pif1B	1			6212	4.38e5
Pif1A + Pif1B	2			7490	4.39e5
Pif1A + Pif1B	3			6307	4.06e5
CG17024 (retired record)	1			7356	4.76e5
CG4073	1			7222	3.73e5
Atg8b	1			7008	4.37e5
tea	1			10617	3.84e5
tea	2			7446	4.70e5
CG13159	1			4019	4.64e5
brv3	1			6196	3.08e5
CG9799	1			7640	5.76e5
CG33253	1			6320	4.69e5
CG33253	2			3331	3.87e5
CG17376	1	reporter ratio lowered past the hit cutoff		8834	5.87e5
CG13427	1			6076	4.56e5
CG14818	1			5707	3.36e5
CG31321	1			5403	5.42e5
seq	1			4459	2.18e5
CG4101	1			6610	3.60e5
CG13599	1			7839	4.37e5
CG13930	1			6222	3.91e5
CG4360	1			6731	3.62e5
Bcs1	1			7335	3.67e5
Eip63E	1			7027	3.20e5
Rpt4	1		reporter ratio raised past the hit cutoff	5927	2.61e5
Serinc	1			9026	3.24e5
CG31016	1			9009	4.50e5
Nf-YB	1			6759	3.61e5
CG7744	1			14612	5.62e5
CG11825	1			6270	3.77e5
CG32333	1			9950	3.26e5
CG32333	2			5958	2.76e5
CG42326	1			6814	3.40e5
CG42326	2			6426	2.67e5
beat-Va	1			7707	4.92e5
Rab1	1			6560	3.78e5
Pex6 + Hao	1			8678	5.13e5
Pex6 + Hao	2			7692	5.37e5
CG13937	1			3931	4.24e5
CG33630	1			7183	4.15e5
CG34026	1			6215	4.11e5
Tcs3	1			7114	4.07e5
ari-2	1			7328	5.11e5
Uhg2 + snoRNA:Me18S-G1620 + snoRNA:U14:30Ea	1			5340	4.70e5
CG31206	1			3791	3.82e5
RpS11	1			6092	5.46e5
RpS11	2			4300	4.98e5
CG12112	1			6814	5.41e5
CG13171	1			5638	3.12e5
CG10996	1			6239	5.47e5
Cph	1			4698	3.65e5
Cph	2			5699	2.31e5
rho-4	1			7075	4.10e5
rho-4	2			5591	5.33e5
Oatp33Ea	1			31270	6.03e5
Ir67b	1			5892	4.38e5
Fer1HCH	1			8482	3.59e5
RpL10Aa	1			7902	3.59e5
Nepl7	1			4643	4.18e5
CG14020	1			7267	4.96e5
Odj	1			7436	3.32e5
CG32071	1			8914	4.52e5
CG15124	1			7368	3.92e5
CG13124	1			42630	6.28e5
Jhbp5	1			6935	3.43e5
rump	1			7898	3.74e5
CG5004	1			3823	3.82e5
CG5004	2			4515	4.61e5
CG5004	3			2816	2.03e5
RhoGAP71E	1			10574	3.85e5
RhoGAP71E	2			7558	4.84e5
RhoGAP71E	3	reporter ratio lowered past the hit cutoff		6722	5.85e5
mRpL20	1			5879	4.72e5
Sgf29	1			1.70e5	6.09e5
Orc5	1			6744	3.77e5
CG5641	1			9490	5.30e5
CG42588	1			5523	3.84e5
CG42588	2			9933	6.05e5
CG31908	1			10070	6.13e5
CG31908	2	reporter ratio lowered past the hit cutoff		2607	3.25e5
Hexim	1			8399	4.63e5
CG32645	1			5614	3.63e5
CG32645	2			5627	4.04e5
CG1998	1			4423	4.38e5
Dip-C	1			7302	3.80e5
CG41020 (retired record)	1			3920	3.30e5
DJ-1alpha	1			5615	3.45e5
Usp16-45	1			8102	4.66e5
CG5623	1			6935	4.85e5
CG34169	1			5403	4.61e5
Jhe	1			5442	2.99e5
Muc30E	1			4859	3.82e5
Nlg2	1			9419	4.48e5
Pdhb	1			8878	5.04e5
lncRNA:CR30055	1			4535	4.70e5
CG14657	1			6351	4.20e5
CG14657	2			7930	5.71e5
CG31639	1			3811	2.70e5
CCT4	1			7976	3.99e5
CG33309	1			5031	3.55e5
atilla	1			7351	4.87e5

A portion from the list above, for reference:
target	reagent no.	stable siRNA reporter change	miRNA reporter change	stable assay Renilla, run 1 (luminescence)	stable assay firefly, run 1 (luminescence)
DJ-1alpha	1			5615	3.45e5
Usp16-45	1			8102	4.66e5
CG5623	1			6935	4.85e5
CG34169	1			5403	4.61e5
Jhe	1			5442	2.99e5
Muc30E	1			4859	3.82e5
Nlg2	1			9419	4.48e5
Pdhb	1			8878	5.04e5
lncRNA:CR30055	1			4535	4.70e5
CG14657	1			6351	4.20e5
CG14657	2			7930	5.71e5
